Data reported in paper PMC11408460 (Cellular and Molecular Life Sciences: CMLS, 2024).
Results are given in words; binding and its absence hold for the method and conditions named.

How the values were obtained:
[1] = target: HBA1(111–132), 22-amino acid C-terminal fragment of human hemoglobin A (human); assay: SEC-MALS; both purified
[2] = target: HBA1(120–132), C-terminal 13-mer fragment of HBA1(111–132) (human); assay: SEC-MALS; both purified

Row | binding [1] | binding [2] | Binder
1 | no binding (tested: 5 mg/ml) |  | AAHLPAEFTPAVHASLDKFLAS [HBA1(111–132), 22-amino acid C-terminal fragment of human hemoglobin A]
2 |  | no binding (tested: 10 mg/ml) | PAVHASLDKFLAS [HBA1(120–132), C-terminal 13-mer fragment of HBA1(111–132)]
